Laboratory results as given in patent publication EP4635980A1 (Medigene Immunotherapies GmbH, dated 2025).
No constants are given. Whether binding was seen depends on the method and setting. Some binding calls cover weakened binding; strength is not graded here. For some of these results: Sequences can lack the tags named with a protein.

Columns and labels:
[1] = molecular target: T1, ALA-10 mutagenic UNI-tag peptide (DKGEVPKDRASA); experiment: dot blot, peptide on PVDF membrane
T1 construct: UNI-tag with alanine at position 10 (F10A); also called Uni-Tag-ALA 10; positive control
T1 peptide: DKGEVPKDRASA

[2] = molecular target: UNI-tag modified PRAME-VLD (T4.8-1-29) specific TCR; experiment: flow cytometry on transduced Jurkat 76 -/- CD8+ ieGFP cells
[3] = molecular target: UNI-tag modified KRasG12V (T47.8-41-071) specific TCR; experiment: as above
[4] = molecular target: UNI-tag modified NY-ESO-1 (T11.8-10-17) specific TCR; experiment: as above

Measured: binding

B1: recombinant monoclonal MDG827 antibody (produced in HEK293 cells) (antibody, V domains shown)
VH: EVQLEESGGGLVQPGRSMKLSCAASGFTFSDYGMAWVLQGPTKGLEWVASISYDGNRPYYRDSVKGRFTISRDNAKSTLYLQMESLRSEDTATYYCVKDLFEIGDFDYWGQGVMVTVSS
VL: DVLMTQTPVSLPVSLGGQVSISCRSSQSLVHSDGNTYLHWYLQKPGQSPQLLIYRVSNRFSGVPDRFTGSGSGTDFTLKISRVEPEDLGVYYCLQSTHFPLTFGSGTKLEIKR
notes: used as culture supernatant; Detected with anti-rat IgG2a; also called recombinantly produced MDG827; anti-TRBC MDG827 antibody
binds: all assays above
